For at least one compound, name, drawing or mass did not settle the structure.
Experiments:
[1] = Oxidation stability of reduced coenzyme Q10 in ethanol solution with additive, stirred in air, HPLC weight ratio; format: physicochemical; conditions: Reference Example 1: ethanol solution, 0.1 parts by weight antioxidant per 100 parts ethanol, stirred in air at 25° C., after 24 hours
[2] = Oxidation stability of reduced coenzyme Q10 ethanol solution with L-ascorbic acid, stirred in air at 50° C.; format: physicochemical; conditions: 5 parts reduced coenzyme Q10 and 1 part L-ascorbic acid per 100 parts solvent, after 50 hours
Description: In the examples, purity of reduced coenzyme Q10 and the weight ratio of reduced coenzyme Q10/oxidized coenzyme Q10 were determined by the HFLC analysis specified below. The reduced coenzyme Q10 purity values as determined, however, are by no means indicative of the limit purity value attainable in accordance with the present invention. Likewise, the ratio of the reduced coenzyme Q10 in the weight ratio of reduced coenzyme Q10/oxidized coenzyme Q10 values obtained never indicates the upper limit to that ratio.
Column; SYMMETRY C18 (product of Waters), 250 mm (in length), 4.6 mm (in inside diameter): mobile phase; C2H5OH/CH3OH=4/3 (v/v); detection wavelength; 210 nm; flow rate; 1 ml/min: retention time of reduced coenzyme Q10; 9.1 min: retention time of oxidized coenzyme Q10; 13.3 min.
Using the reduced coenzyme Q10 crystal obtained in Example 1, an ethanol solution containing 5 parts by weight of reduced coenzyme Q10 relative to 100 parts by weight of ethanol was prepared. To this ethanol solution, L-ascorbic acid was added so that 1 part by weight of L-ascorbic acid was contained relative to 100 parts by weight of the solvent (20 parts by weight relative to 100 parts by weight of reduced coenzyme Q10), and the solution was stirred in air at 50° C. […]

Compound: COc1ccc(O)c(C(C)(C)C)c1 [Butylhydroxyanisol]
- R: The weight ratio of reduced coenzyme Q10/oxidized coenzyme Q10 [1]: 56.0/44.0

Compound: COc1c(O)c(C)c(C/C=C(\C)CC/C=C(\C)CC/C=C(\C)CC/C=C(\C)CC/C=C(\C)CC/C=C(\C)CC/C=C(\C)CC/C=C(\C)CC/C=C(\C)CCC=C(C)C)c(O)c1OC [Reduced coenzyme Q10, reduced coenzyme Q10]
- R: The weight ratio of reduced coenzyme Q10/oxidized coenzyme Q10 [2]: 74.1/25.9

Source: US9532957B2, “Method of stabilizing reduced coenzyme Q10” (Kaneka Corporation, priority 2001, dated 2017)
